# These are yes or no findings as the source states them, for the method shown. For part of these data: In cells and extracts the contact can be indirect. Some binding calls cover weakened binding; strength is not graded here. Sequences can lack the tags named with a protein.
# T1: Sirt1WT-6xHis (human), Q96EB6
# T1 chain: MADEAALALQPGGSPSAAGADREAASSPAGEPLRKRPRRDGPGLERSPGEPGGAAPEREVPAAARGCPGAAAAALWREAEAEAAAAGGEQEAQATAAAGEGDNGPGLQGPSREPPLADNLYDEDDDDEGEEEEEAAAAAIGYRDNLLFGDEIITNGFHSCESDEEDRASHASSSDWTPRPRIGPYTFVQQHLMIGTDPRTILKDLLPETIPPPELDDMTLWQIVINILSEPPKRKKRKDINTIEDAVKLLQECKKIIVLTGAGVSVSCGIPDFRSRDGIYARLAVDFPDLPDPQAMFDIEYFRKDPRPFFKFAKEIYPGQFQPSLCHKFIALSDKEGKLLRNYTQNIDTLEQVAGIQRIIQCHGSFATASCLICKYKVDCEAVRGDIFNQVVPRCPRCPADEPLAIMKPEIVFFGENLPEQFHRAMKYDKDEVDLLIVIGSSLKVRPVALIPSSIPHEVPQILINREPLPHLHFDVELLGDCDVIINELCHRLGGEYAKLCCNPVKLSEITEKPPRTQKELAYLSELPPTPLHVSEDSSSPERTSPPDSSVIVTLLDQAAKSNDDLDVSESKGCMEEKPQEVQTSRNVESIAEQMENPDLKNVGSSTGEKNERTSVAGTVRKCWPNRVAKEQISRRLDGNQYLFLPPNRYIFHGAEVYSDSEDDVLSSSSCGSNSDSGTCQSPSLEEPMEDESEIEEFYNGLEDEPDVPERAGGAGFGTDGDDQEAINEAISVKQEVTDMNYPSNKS
# B1: Smad4-pMyr target fusion product, Q13485 1-552 (protein)
# chain: MDNMSITNTPTSNDACLSIVHSLMCHRQGGESETFAKRAIESLVKKLKEKKDELDSLITAITTNGAHPSKCVTIQRTLDGRLQVAGRKGFPHVIYARLWRWPDLHKNELKHVKYCQYAFDLKCDSVCVNPYHYERVVSPGIDLSGLTLQSNAPSSMMVKDEYVHDFEGQPSLSTEGHSIQTIQHPPSNRASTETYSTPALLAPSESNATSTANFPNIPVASTSQPASILGGSHSEGLLQIASGPQPGQQQNGFTGQPATYHHNSTTTWTGSRTAPYTPNLPHHQNGHLQHHPPMPPHPGHYWPVHNELAFQPPISNHPAPEYWCSIAYFEMDVQVGETFKVPSSCPIVTVDGYVDPSGGDRFCLGQLSNVHRTEAIERARLHIGKGVQLECKGEGDVWVRCLSDHAVFVQSYYLDREAGRAPGDAVHKIYPSAYIKVFDLRQCHRQMQQQAATAQAAAAAQAAAVAGNIPGPGSVGGIAPAISLSAAAGIGVDDLRRLCILRMSFVKGWGPDYPRQSIKETPCWIEIHLHRALQLLDEVLHTMPIADPQPLD
# B2: full length GST-Smad2, Q15796 1-467 (protein)
# chain: MSSILPFTPPVVKRLLGWKKSAGGSGGAGGGEQNGQEEKWCEKAVKSLVKKLKKTGRLDELEKAITTQNCNTKCVTIPSTCSEIWGLSTPNTIDQWDTTGLYSFSEQTRSLDGRLQVSHRKGLPHVIYCRLWRWPDLHSHHELKAIENCEYAFNLKKDEVCVNPYHYQRVETPVLPPVLVPRHTEILTELPPLDDYTHSIPENTNFPAGIEPQSNYIPETPPPGYISEDGETSDQQLNQSMDTGSPAELSPTTLSPVNHSLDLQPVTYSEPAFWCSIAYYELNQRVGETFHASQPSLTVDGFTDPSNSERFCLGLLSNVNRNATVEMTRRHIGRGVRLYYIGGEVFAECLSDSAIFVQSPNCNQRYGWHPATVCKIPPGCNLKIFNNQEFAALLAQSVNQGFEAVYQLTRMCTIRMSFVKGWGAEYRRQTVTSTPCWIELHLNGPLQWLDKVLTQMGSPSVRCSSMS
# B3: Sirt1 clone from the human lung cDNA library in pMyr, Q96EB6 1-747 (protein)
# chain: T1 chain
# B4: Flag-Smad2, Q15796 1-467 (protein)
# chain: B2 chain
# B5: HA-Sirt1, Q96EB6 1-747 (protein)
# chain: T1 chain
# What was measured:
# Conditions in all cases: remark: other sources report otherwise
# [1] = target: Smad2 bait fusion in pSos (Cyto Trap two-hybrid) (human), Q15796; assay: two-hybrid; Cyto Trap yeast two-hybrid in S. cerevisiae strain Cdc25H; Smad2 in pSos as bait, targets (Smad4 or human lung cDNA library) in pMyr; growth at 37 °C as selective condition
# [2] = target: T1, Sirt1WT-6xHis (human), Q96EB6; assay: pull-down; 4 μg GST-fusion protein mixed with 20 μl (10-20 μg) resin-coupled Sirt1WT-6xHis in 400 μl 50 mM HEPES pH 7.2, 300 mM NaCl, 1% Triton X-100, 10% glycerol, BSA 0.2 mg/ml; 2 h at 4 °C; Western blot; both purified
# [3] = target: T1, Sirt1WT-6xHis (human), Q96EB6; assay: pull-down; Flag-Smad2 affinity-purified from transfected HEK293T cells (FLAG peptide elution) added to resin-coupled Sirt1-6xHis or its 6xHis fragments; 2 h at 4 °C; Western blot; both purified
# [4] = target: Flag-Smad2 (human), Q15796; assay: co-IP; HEK293T cells co-transfected with HA-Sirt1 and Flag-Smad2 (wild type or mutants); SB-431542, with TSA or DMSO, then with or without TGFβ for 1 h; Flag immunoprecipitation, Western blot
# [5] = target: Flag-Smad2 (human), Q15796; assay: co-IP; Hep3B cells co-transfected with HA-Sirt1 (wild type or H363Y) and Flag-Smad2; TSA for 8 h followed by TGFβ; Smad2 immunoprecipitated from total extract, Western blot
binder,measurement,setting,value
B1,binding,[1],binds
B2,binding,[2],binds
B3,binding,[1],binds
B4,binding,[3],binds
B5,binding,[4],binds
same,binding,[5],binds
